The record followed here is article doi:10.1101/2024.08.31.610644.

By UniProt entry, the sequences of proteins in these tests, tags left out.
UniProt Q9SP32: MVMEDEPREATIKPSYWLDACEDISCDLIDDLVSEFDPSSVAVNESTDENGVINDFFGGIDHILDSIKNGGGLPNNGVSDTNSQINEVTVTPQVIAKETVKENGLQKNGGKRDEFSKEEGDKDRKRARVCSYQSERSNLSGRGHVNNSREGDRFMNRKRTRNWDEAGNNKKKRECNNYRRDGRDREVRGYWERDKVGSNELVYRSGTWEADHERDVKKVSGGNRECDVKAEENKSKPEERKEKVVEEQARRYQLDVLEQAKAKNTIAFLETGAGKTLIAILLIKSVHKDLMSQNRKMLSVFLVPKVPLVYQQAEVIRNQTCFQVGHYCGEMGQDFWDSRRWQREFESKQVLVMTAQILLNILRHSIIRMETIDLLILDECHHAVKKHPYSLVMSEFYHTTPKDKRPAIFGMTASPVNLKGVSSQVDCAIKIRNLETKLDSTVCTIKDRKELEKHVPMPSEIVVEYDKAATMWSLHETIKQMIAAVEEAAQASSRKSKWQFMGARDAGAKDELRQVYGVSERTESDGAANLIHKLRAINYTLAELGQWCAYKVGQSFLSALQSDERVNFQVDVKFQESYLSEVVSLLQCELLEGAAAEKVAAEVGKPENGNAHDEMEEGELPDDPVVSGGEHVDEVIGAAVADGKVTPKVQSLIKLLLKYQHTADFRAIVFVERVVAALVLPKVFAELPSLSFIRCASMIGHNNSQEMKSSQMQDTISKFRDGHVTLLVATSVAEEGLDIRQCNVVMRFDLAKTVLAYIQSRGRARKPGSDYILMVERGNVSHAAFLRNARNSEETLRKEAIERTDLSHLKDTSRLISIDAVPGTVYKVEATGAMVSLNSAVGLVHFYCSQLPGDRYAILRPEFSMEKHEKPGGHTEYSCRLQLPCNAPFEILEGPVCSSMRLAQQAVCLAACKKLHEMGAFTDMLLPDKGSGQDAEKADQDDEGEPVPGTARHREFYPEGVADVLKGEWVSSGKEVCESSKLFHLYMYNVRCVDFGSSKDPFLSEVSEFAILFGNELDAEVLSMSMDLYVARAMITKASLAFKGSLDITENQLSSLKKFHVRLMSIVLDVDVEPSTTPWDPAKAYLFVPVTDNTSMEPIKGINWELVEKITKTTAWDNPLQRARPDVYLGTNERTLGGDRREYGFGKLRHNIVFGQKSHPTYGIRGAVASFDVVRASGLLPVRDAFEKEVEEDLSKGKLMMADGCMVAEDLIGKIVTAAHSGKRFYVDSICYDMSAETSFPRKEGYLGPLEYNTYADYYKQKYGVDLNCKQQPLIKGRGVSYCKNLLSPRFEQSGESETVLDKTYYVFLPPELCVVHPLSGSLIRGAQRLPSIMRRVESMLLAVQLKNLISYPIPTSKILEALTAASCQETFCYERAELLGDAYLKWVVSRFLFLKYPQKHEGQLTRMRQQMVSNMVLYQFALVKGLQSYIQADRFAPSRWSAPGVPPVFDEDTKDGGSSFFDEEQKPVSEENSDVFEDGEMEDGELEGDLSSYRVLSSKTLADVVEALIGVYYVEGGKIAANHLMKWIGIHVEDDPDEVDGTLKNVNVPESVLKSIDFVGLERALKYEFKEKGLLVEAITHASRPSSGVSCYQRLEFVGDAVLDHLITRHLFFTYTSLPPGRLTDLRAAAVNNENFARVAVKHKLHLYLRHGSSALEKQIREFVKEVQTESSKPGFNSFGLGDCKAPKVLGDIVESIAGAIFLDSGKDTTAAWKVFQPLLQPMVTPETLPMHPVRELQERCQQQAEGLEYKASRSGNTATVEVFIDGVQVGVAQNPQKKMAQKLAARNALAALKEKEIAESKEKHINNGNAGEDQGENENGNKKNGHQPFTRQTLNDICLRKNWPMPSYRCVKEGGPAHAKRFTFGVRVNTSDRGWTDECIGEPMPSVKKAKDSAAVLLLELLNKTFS
UniProt O82486: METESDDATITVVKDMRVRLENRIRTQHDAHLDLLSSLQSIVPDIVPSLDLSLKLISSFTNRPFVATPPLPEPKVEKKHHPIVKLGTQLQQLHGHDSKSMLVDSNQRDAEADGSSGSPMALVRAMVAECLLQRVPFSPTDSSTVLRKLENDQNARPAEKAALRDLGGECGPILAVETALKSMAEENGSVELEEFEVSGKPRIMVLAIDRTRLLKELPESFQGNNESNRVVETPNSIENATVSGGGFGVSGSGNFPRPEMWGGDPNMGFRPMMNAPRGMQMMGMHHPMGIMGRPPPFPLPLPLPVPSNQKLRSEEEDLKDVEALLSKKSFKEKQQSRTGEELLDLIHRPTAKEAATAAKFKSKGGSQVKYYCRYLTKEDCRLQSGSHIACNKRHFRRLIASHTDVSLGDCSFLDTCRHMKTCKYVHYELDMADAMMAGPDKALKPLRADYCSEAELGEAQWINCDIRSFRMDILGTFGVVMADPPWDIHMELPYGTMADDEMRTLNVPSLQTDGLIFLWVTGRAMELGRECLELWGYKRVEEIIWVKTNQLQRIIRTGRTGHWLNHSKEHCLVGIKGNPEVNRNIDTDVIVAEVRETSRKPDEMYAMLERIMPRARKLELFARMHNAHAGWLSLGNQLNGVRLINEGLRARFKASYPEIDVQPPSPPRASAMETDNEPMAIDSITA

Where two headings read alike, the source gives them in different places. Results are given in words; binding and its absence hold for the method and conditions named. Some results given as binding are weak or reduced against the parent protein; the word gives no strength. For some assays here: Where a sequence is shown, tags or fusion partners need not be part of it.

Common to all, as to test: two-hybrid
Test [1] addresses T1, SERRATE (SE), yeast two-hybrid fusion (Arabidopsis thaliana) (UniProt Q9ZVD0).
T1 sequence: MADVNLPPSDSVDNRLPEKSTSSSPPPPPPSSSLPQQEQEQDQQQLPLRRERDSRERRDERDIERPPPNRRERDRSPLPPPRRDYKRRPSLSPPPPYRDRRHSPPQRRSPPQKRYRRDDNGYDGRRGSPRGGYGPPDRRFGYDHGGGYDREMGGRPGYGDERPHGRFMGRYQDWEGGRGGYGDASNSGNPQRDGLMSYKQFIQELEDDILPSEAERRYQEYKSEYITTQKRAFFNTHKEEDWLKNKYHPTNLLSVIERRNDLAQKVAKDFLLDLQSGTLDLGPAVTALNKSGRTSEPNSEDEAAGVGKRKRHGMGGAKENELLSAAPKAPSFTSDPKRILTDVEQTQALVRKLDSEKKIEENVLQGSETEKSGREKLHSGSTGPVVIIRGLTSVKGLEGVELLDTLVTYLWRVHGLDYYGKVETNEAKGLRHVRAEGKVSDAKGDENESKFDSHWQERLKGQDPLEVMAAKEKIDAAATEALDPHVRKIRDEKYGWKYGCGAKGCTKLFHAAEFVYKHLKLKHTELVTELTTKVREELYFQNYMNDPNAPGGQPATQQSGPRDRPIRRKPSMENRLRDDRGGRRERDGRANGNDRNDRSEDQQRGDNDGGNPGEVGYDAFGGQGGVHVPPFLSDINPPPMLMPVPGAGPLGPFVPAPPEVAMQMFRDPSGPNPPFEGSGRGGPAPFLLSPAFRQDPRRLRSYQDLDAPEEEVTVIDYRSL

For test [2], the target named is SE-R718A, yeast two-hybrid fusion (Arabidopsis thaliana) (UniProt Q9ZVD0).
Test [3] has as its target T1, SERRATE (SE), yeast two-hybrid fusion (Arabidopsis thaliana). This is another data set of the same source.

Regarding “DCL1, yeast two-hybrid fusion (from UniProt Q9SP32 1-1909)”, the binding result in test [1] and in test [2] was “binds” each time. For “mRNA adenosine methylase A (MTA), yeast two-hybrid fusion (from UniProt O82486 1-685)”, in test [1], the binding result was “no binding”.

B1: FK506-BINDING PROTEIN 12 KD … PROTEIN 37KD (FIP37), yeast two-hybrid fusion (protein, UniProt Q9ZSZ8 1-330)
chain: MEFSSQDDDFGGDDSAANATRASGNRRSFGDLEDDEDDIFGSTTVAPGVRTGMILSLRGSLKNCKDDLASCQNELESAKTEIQKWKSAFQNESFVPAGKSPEPRFLIDYIQNLKSSEKSLKEQLEIAKRKEASCIVQYAKREQEMAELKSAVRDLKSQLKPASMQARRLLLDPAIHEEFSRLKNLVEEKDKKIKELQDNIAAVTFTPQSKNGKMLMAKCRTLQEENEEIGHQAAEGKIHELAIKLAMQKSQNAELRSQFEGLYKHMEELTNDVERSNETVIILQEKLEEKEKEIERVKKGLEIVSELVGDKKDEVDEIDEDAKEEIAGGE
Turning to B1, the binding result in test [3] is recorded as “binds”.

B2: evolutionarily conserved C-terminal region 2 (ECT2), yeast two-hybrid fusion (protein, UniProt Q9LJE5 1-667)
chain: MATVAPPADQATDLLQKLSLDSPAKASEIPEPNKKTAVYQYGGVDVHGQVPSYDRSLTPMLPSDAADPSVCYVPNPYNPYQYYNVYGSGQEWTDYPAYTNPEGVDMNSGIYGENGTVVYPQGYGYAAYPYSPATSPAPQLGGEGQLYGAQQYQYPNYFPNSGPYASSVATPTQPDLSANKPAGVKTLPADSNNVASAAGITKGSNGSAPVKPTNQATLNTSSNLYGMGAPGGGLAAGYQDPRYAYEGYYAPVPWHDGSKYSDVQRPVSGSGVASSYSKSSTVPSSRNQNYRSNSHYTSVHQPSSVTGYGTAQGYYNRMYQNKLYGQYGSTGRSALGYGSSGYDSRTNGRGWAATDNKYRSWGRGNSYYYGNENNVDGLNELNRGPRAKGTKNQKGNLDDSLEVKEQTGESNVTEVGEADNTCVVPDREQYNKEDFPVDYANAMFFIIKSYSEDDVHKSIKYNVWASTPNGNKKLAAAYQEAQQKAGGCPIFLFFSVNASGQFVGLAEMTGPVDFNTNVEYWQQDKWTGSFPLKWHIVKDVPNSLLKHITLENNENKPVTNSRDTQEVKLEQGLKIVKIFKEHSSKTCILDDFSFYEVRQKTILEKKAKQTQKQVSEEKVTDEKKESATAESASKESPAAVQTSSDVKVAENGSVAKPVTGDVVANGC
For B2, the binding entry in test [3] was “binds”.
